Test [1] is described as follows: Validation of Assay for Modulators of Lamin A Splicing (AID 1459). Particulars: Lamin A splicing dual RFP/GFP fluorescence reporter, ratio. In short, it runs like this: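 Splicing correction is reported by an EGFP-containing lamin A minigene in stably transfected S3 HeLa cells, while DsRed2 controls for viability and nonspecific signal. Cells are exposed to compounds for 48 hrs before the GFP over RFP ratio is taken.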

Amino acid sequences for entries named in this document (tags omitted). A change or cut given only in a name is not applied to a line headed by its entry.
UniProt P40261: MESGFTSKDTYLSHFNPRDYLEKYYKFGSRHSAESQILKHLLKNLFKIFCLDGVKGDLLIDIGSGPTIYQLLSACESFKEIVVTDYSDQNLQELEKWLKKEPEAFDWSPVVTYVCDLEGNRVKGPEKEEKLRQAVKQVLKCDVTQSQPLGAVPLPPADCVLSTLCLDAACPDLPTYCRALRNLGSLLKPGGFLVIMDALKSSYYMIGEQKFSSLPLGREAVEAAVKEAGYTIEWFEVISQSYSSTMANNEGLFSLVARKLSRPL

Test [2] is described as follows: qHTS Assay for Lipid Storage Modulators (AID 1519). The following applies: Drosophila S3 cells, BODIPY lipid droplet/cell ratio, laser cytometry, cells loaded with oleic acid. In short, it runs like this:
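Cells seeded at 5,000 per well were treated with compounds over a concentration series and loaded with oleic acid (400 uM, as added). Lipid droplet fluorescence (488 nm excitation, 500-530 nm channel) was read by laser-scanning cytometry and normalized to 20 uM Triacsin C.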
For orientation: Quantitative high-throughput screening tests each substance at several concentrations.

A short description of test [3]: qHTS Assay for Modulators of Human Peripheral Myelin Protein 22 (PMP22) Expression/Activity (AID 1967). Particulars: Cell-based PMP22 reporter, dual-color luciferase ratio. In a few lines:
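Quantitative HTS in a mouse Schwann cell line expressing dual click beetle luciferases: Pmp22 promoter (green) and control EF-alpha promoter (red). After 24h treatment, corrected green/red signal ratio gave %Activity relative to untreated cells.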

Test [4] has as its target Nicotinamide N-methyltransferase (Homo sapiens) (UniProt P40261). Kind of test: Confirmatory Screen for Target Class Profiling of Small Molecule Inhibitors of Methyltransferases (AID 1745852). Particulars: MTase-Glo luminescence, SAH detection, recombinant enzyme; measured here: NNMT inhibition potency.
Test [5] is described as follows: qHTS Validation Assay to Find Inhibitors of Chronic Active B-Cell Receptor Signaling (AID 485345). Particulars: ABC-DLBCL cells, chronic BCR signaling reporter; measured here: CBR control luciferase (viability counter). In short, it runs like this: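 Read-out: ratio of filter-corrected green (IkappaBalpha fusion) to red (native) luciferase signal in doxycycline-induced TMD8 cells after 4 h at 37C. Titration spanned 46 uM–3 nM; Data were normalised to basal cells and 10 uM MG-132 wells.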

The nature of test [6]: Nrf2 qHTS screen for inhibitors: Validation (AID 493153). Particulars: A549 ARE-Fluc reporter, 18-24 h; AC50: CellTiter-Fluor fluorescence read, measured here: cytotoxicity CellTiter-Fluor AC50; viability change: measured here: cytotoxicity max response. In a few lines:
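A549 cells carrying an ARE-driven firefly luciferase reporter, in 5% FBS OPTI-MEM, were treated with compounds in concentration-response for 18-24 h at 37°C. Viability was read by CellTiter-Fluor fluorescence, then Nrf2 activity by luciferase luminescence.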

The mark [7] stands for this setting: measured here: cell count channel max response.
Setting [8] is: measured here: cell number channel AC50.
[9] abbreviates: measured here: lipid (BODIPY) channel AC50.
[10] abbreviates: measured here: lipid channel max response.
Setting [11] is: measured here: green reporter channel AC50, mouse Pmp22 promoter in mouse Schwann cells.
The mark [12] stands for this setting: measured here: red reporter channel AC50, EF-alpha promoter control reporter in MSC80 mouse Schwann cells.

The list shows a part of the results. Shown are side measurements of this screen, not its main read-out; they come without a call. Most of these compounds were active or inconclusive in the main read-out, so they are no random draw. Words in brackets tell the shape of the fitted curve; partial curves, single points and poor fits give uncertain potencies.

One may read the AC50 as the concentration at which the activity in the assay is half-maximal. In general, IC50 refers to the concentration needed to halve the response being measured. As for `C[C@]12Cc3cn4c(nc3C=C1CCC1C2CC[C@@]2(C)[C@H]1CC[C@@]2(O)C#N)nc1ccccc14` (some centres undefined), the AC50 is 5.62 µM [falling, full curve] in test [1] (measured here: GFP channel); 5.62 µM [falling, full curve] in test [1] (measured here: RFP channel); 10 µM [falling, partial curve, poor fit] in test [2] (setting [8]); 10 µM [falling, partial curve, poor fit] in test [2] (setting [9]); 84.9 µM [falling, single point] in test [3] (setting [11]); 23.9 µM [falling, partial curve] in test [3] (setting [12]). Also, the values for the max response in test [2] (setting [7]) and in test [2] (setting [10]) were -66.2% and -63%, respectively. Besides, the IC50 in test [4] is 21.7 µM [falling, partial curve].
Take `COc1ccc2c(c1)/C(=C/c1cnc[nH]1)C(=O)N2`: the concentration at half-maximal activity (AC50) in test [1] (measured here: GFP channel) was 35.5 µM [falling, single point]; in test [1] (measured here: RFP channel), 28.2 µM [falling, partial curve]; in test [2] (setting [8]), 35.5 µM [rising, single point]; in test [2] (setting [9]) it was 35.5 µM [rising, single point]; in test [3] (setting [11]), 95.3 µM [falling, single point]; in test [3] (setting [12]), 95.3 µM [falling, single point]. The AC50 in test [5] is 2.91 µM [rising, partial curve]; in test [6], 23.1 µM [falling, partial curve, poor fit]. Further, the max response in test [2] (setting [7]) worked out at 50.1%; in test [2] (setting [10]), 50%. Moreover, the viability change in test [6] is -33.8%.
In the case of `C[C@@H]1O[C@@H](O[C@H]2C[C@@H](O)[C@]3(CO)[C@H]4[C@H](O)C[C@]5(C)[C@@H]([C@@H]6COC(=O)C6)CC[C@]5(O)[C@@H]4CC[C@]3(O)C2)[C@H](O)[C@H](O)[C@H]1O`, the AC50 is 2.82 µM [falling, full curve, poor fit] in test [1] (measured here: GFP channel) and 2.82 µM [falling, full curve, poor fit] in test [1] (measured here: RFP channel). Further, the max response in test [2] (setting [7]) worked out at 63.6%; in test [2] (setting [10]) it was 64.3%.

Values taken from PubChem BioAssay (NCATS).
